# PubChem BioAssay AID1259425 | University of Nebraska Medical Center – 2018
# Assay: 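Find knockdowns that reproduce the gene expression pattern seen when KSR1 is lost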 (primary screen)
# System: HCT116 human colon cancer cells
# Reagent: siRNA pool against human genes, 50 nM siRNA
# Detection: 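After 50 nM siRNA pool, branched-DNA assay measures six marker transcripts per well, minus blank, normalised to the geometric mean of two housekeeping transcripts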
# Scale: BNIP3L mRNA: higher = more BNIP3L transcript after knockdown
# This is an unselected part of about 14,000 deposited reagents. The numbers tell different reagents against one gene apart. Further read-outs or replicates are left out here. Not given: the time to read-out.
"BNIP3L mRNA, set 1",gene,reagent
0.166,ASCC2 (activating signal cointegrator 1 complex subunit 2),1
0.161,BEGAIN (brain enriched guanylate kinase associated),1
0.0739,GGA2,1
0.144,MAPK11 (mitogen-activated protein kinase 11),1
0.0457,CAMK2N1 (calcium/calmodulin dependent protein kinase II inhibitor 1),1
0.0599,HHLA2 (HHLA2 member of B7 family),1
0.158,ATMIN (ATM interactor),1
0.0927,P4HA2 (prolyl 4-hydroxylase subunit alpha 2),1
0.0246,MAML1 (mastermind like transcriptional coactivator 1),1
0.0704,ENO1 (enolase 1),1
0.0984,C1orf56 (chromosome 1 open reading frame 56),1
0.0841,GRB14 (growth factor receptor bound protein 14),1
0.135,TDRD3 (tudor domain containing 3),1
0.0626,ATG7 (autophagy related 7),1
0.0638,NR1H3 (nuclear receptor subfamily 1 group H member 3),1
0.249,TCP10L (t-complex 10 like),1
0.13,CELSR2 (cadherin EGF LAG seven-pass G-type receptor 2),1
0.145,ZNF23 (zinc finger protein 23),1
0.151,XPO4 (exportin 4),1
0.0827,UBE3B (ubiquitin protein ligase E3B),1
0.191,PLAGL1 (PLAG1 like zinc finger 1),1
0.182,LCE2B (late cornified envelope 2B),1

The list goes on (2 carried over from the part before).
"BNIP3L mRNA, set 1",gene,reagent
0.191,PLAGL1 (PLAG1 like zinc finger 1),1
0.182,LCE2B (late cornified envelope 2B),1
0.122,IFI27 (interferon alpha inducible protein 27),1
0.253,HTR5A (5-hydroxytryptamine receptor 5A),1
0.088,EPHA7 (EPH receptor A7),1
0.0642,PEX26 (peroxisomal biogenesis factor 26),1
0.132,CNGB1 (cyclic nucleotide gated channel subunit beta 1),1
0.223,TRIB3 (tribbles pseudokinase 3),1
0.19,POGK (pogo transposable element derived with KRAB domain),1
0.176,ZNF503 (zinc finger protein 503),1
0.0526,PHOSPHO1 (phosphoethanolamine/phosphocholine phosphatase 1),1
0.0564,RB1CC1 (RB1 inducible coiled-coil 1),1
0.0818,EIF3F (eukaryotic translation initiation factor 3 subunit F),1
0.123,"UQCR11 (ubiquinol-cytochrome c reductase, complex III subunit XI)",1
0.159,SLC26A3,1
0.24,DIO1 (iodothyronine deiodinase 1),1
0.056,SNCA (synuclein alpha),1
0.0552,SGCG (sarcoglycan gamma),1
0.0464,CRYAB (crystallin alpha B),1
0.145,MIER1 (MIER1 transcriptional regulator),1
0.142,CRYZL1 (crystallin zeta like 1),1
0.316,DCAF1 (DDB1 and CUL4 associated factor 1),1
0.134,KRT6A (keratin 6A),1
0.127,KRT6A (keratin 6A),2
0.0594,TRPC1,1
0.138,LPP,1
0.0664,HNRNPM (heterogeneous nuclear ribonucleoprotein M),1
0.198,HSPC047 (retired record),1
0.172,"B3GALT1 (beta-1,3-galactosyltransferase 1)",1
0.1,BCL2L11 (BCL2 like 11),1
